Measured values reported in the supplement of paper PMC7877785.
± gives the uncertainty stated by the source. The uncertainty is large for many entries.

Assay: self-splicing fitness, log relative to wild type (ln ratio); higher = more splicing; Tetrahymena group I intron in knt gene, E. coli kanamycin selection, DiMSum; sequences stand for … in CUCUCU…GGAGGGAAAAGUUAUCAGGCAUGCACCUGGUAGCUAGUCUUUAAACCAAUAGAUUGCAUCGGUUUAAAAGGCAAGACCGUCAAAUUGCGGGAAAGGGGUCAACAGCCGUUCAGUACCAAGUCUCAGGGGAAACUUUGAGAUGGCCUUGCAAAGGGUAUGGUAAUAAGCUGACGGACAUGGUCCUAACCACGCAGCCAAGUCCUAAGUCAACAGAUCUUCUGUUGAUAUGGAUGCAGUUCACAGACUAAAUGUCGGUCGGGGAAGAUGUAUUCUUCUCAUAAGAUAUAGUCGGACCUCUCCUUAAUGGGAGCUAGCGGAUGAAGUGAUGCAACACUGGAGCCGCUGGGAACUAAUUUGUAUGCGAAAGUAUAUUGAUUAGUUUUGGAGUACUCGUGGUCG
In short: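 Colonies from six replicate transformations of E. coli BL21(DE3) were pooled and amplicon-sequenced on an Illumina HiSeq 2500. The library placed an intron with all eight P1ex-region nucleotides randomised inside the knt kanamycin-resistance gene on pET-22b(+), and cells grew overnight at 37°C or 30°C on LB agar with or without 25 μg/mL kanamycin (plus 100 μg/mL carbenicillin, 50 μM IPTG, 0.2% rhamnose). Fitness is the DiMSum error-weighted combination of wild-type-normalised replicate fold changes, kanamycin versus none.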

Sequence | self-splicing fitness (ln) (37 °C) | self-splicing fitness (ln) (30 °C)
GGAGAGCAAUAUUACGGGGA | -3.33 ± 1 | –
GCGGAGCAAUAUUACGGCAG | -0.595 ± 1.4 | –
GAGCAGCAAUAUUACGCCCC | -1 ± 0.92 | –
CCCGAGCAAUAUUACGGCAC | – | -4.47 ± 0.51
UAAUAGCAAUAUUACGUAUU | -1.95 ± 0.16 | -4.09 ± 0.28
UUUCAGCAAUAUUACGAUCC | – | -3.32 ± 0.65
GACGAGCAAUAUUACGACCA | -2.66 ± 0.77 | -2.79 ± 0.54
GCGGAGCAAUAUUACGGUGC | -1.84 ± 1.1 | –
GUGGAGCAAUAUUACGCAGA | 0.0117 ± 1.2 | -2.66 ± 0.66
UUUCAGCAAUAUUACGGACC | -0.096 ± 0.58 | –
GAAGAGCAAUAUUACGCCAG | -0.627 ± 0.38 | -3.42 ± 0.55
UUGUAGCAAUAUUACGCUAC | -2.01 ± 0.5 | -3.9 ± 1
UUUUAGCAAUAUUACGGUGG | -1.16 ± 0.13 | -1.24 ± 0.084
UAAGAGCAAUAUUACGCAAC | – | -3.16 ± 0.52
GAGGAGCAAUAUUACGCCUU | -0.681 ± 1 | -0.135 ± 1.2
CCUGAGCAAUAUUACGCUGG | -1.97 ± 0.51 | -4.32 ± 0.73
CGAUAGCAAUAUUACGUACC | – | -2.95 ± 1.1
UUUUAGCAAUAUUACGCAAC | – | -0.628 ± 0.87
GGGCAGCAAUAUUACGUCGG | 0.392 ± 0.15 | -0.72 ± 0.12
CUGGAGCAAUAUUACGGAGA | -1.91 ± 0.63 | -3.11 ± 0.42
CCAUAGCAAUAUUACGAACC | -1.16 ± 0.55 | –
GUCAAGCAAUAUUACGGUCU | -0.906 ± 0.075 | -2.7 ± 0.084
GAGGAGCAAUAUUACGUGUA | – | -5.35 ± 1
GGCGAGCAAUAUUACGACAG | -3.62 ± 0.72 | –

2 records drawn at random from those above:
Sequence | self-splicing fitness (ln) (37 °C) | self-splicing fitness (ln) (30 °C)
GAGCAGCAAUAUUACGCCCC | -1 ± 0.92 | –
GACGAGCAAUAUUACGACCA | -2.66 ± 0.77 | -2.79 ± 0.54

Later entries

Sequence | self-splicing fitness (ln) (37 °C) | self-splicing fitness (ln) (30 °C)
AAGGAGCAAUAUUACGCCGC | – | -4.55 ± 0.59
UUGGAGCAAUAUUACGAAAU | -1.48 ± 0.5 | -2.49 ± 0.84
UCGGAGCAAUAUUACGAUCU | -1.6 ± 0.53 | -1.99 ± 0.51
UGUGAGCAAUAUUACGGGAA | – | -2.56 ± 0.64
CAGGAGCAAUAUUACGAGAC | – | -3.31 ± 0.61
CCAGAGCAAUAUUACGAGAA | -0.75 ± 0.82 | –
ACACAGCAAUAUUACGAUUC | -1.32 ± 0.072 | -1.96 ± 0.049
UCUAAGCAAUAUUACGUACA | -1.13 ± 0.13 | -1.57 ± 0.13
UAGGAGCAAUAUUACGGAGU | -2.56 ± 0.54 | –
CGAUAGCAAUAUUACGCGUC | – | -4.56 ± 1
CUACAGCAAUAUUACGCUGA | -4 ± 0.59 | –
CGCUAGCAAUAUUACGUUAA | -2.72 ± 0.62 | -4.81 ± 0.58
CUCAAGCAAUAUUACGCAAG | – | -5.46 ± 1
GGUGAGCAAUAUUACGGACU | -0.234 ± 0.69 | -2.44 ± 1.1
GUUGAGCAAUAUUACGUACC | -1.52 ± 0.61 | –
AAGAAGCAAUAUUACGAUUG | -1.78 ± 0.19 | -2.85 ± 0.26
CUUAAGCAAUAUUACGAACC | – | -2.86 ± 0.61
CUCGAGCAAUAUUACGUUCG | – | -2.77 ± 0.78
UGCGAGCAAUAUUACGGCGU | -0.48 ± 0.2 | -2.58 ± 0.18
GGCUAGCAAUAUUACGAGAC | -1.99 ± 0.5 | –
UCCGAGCAAUAUUACGGCCC | – | -2.57 ± 0.57
CCGAAGCAAUAUUACGAGGA | -2.54 ± 0.21 | -4.32 ± 0.39
ACGGAGCAAUAUUACGCUCC | -1.28 ± 0.37 | –
UCCUAGCAAUAUUACGGUUA | – | -3.23 ± 0.74

Sequence | self-splicing fitness (ln) (37 °C) | self-splicing fitness (ln) (30 °C)
UCCUAGCAAUAUUACGAUUA | – | -4.27 ± 0.59
GGUUAGCAAUAUUACGGUUC | -0.114 ± 0.11 | -0.571 ± 0.086
UAUAAGCAAUAUUACGGAGC | – | -2.29 ± 0.64
AACGAGCAAUAUUACGGAAC | -3.31 ± 0.52 | –
CGGUAGCAAUAUUACGUAAU | -1.19 ± 0.64 | –
UCAUAGCAAUAUUACGGGCC | -3.67 ± 0.46 | -3.34 ± 0.6
GGGAAGCAAUAUUACGACGG | -0.903 ± 0.5 | -3.75 ± 0.6
UGGCAGCAAUAUUACGCCUC | -0.0936 ± 0.56 | –
UGUAAGCAAUAUUACGGUUC | – | -3.6 ± 0.78
AGUGAGCAAUAUUACGUGGC | – | -0.0715 ± 0.8
UCUUAGCAAUAUUACGUAAU | -2.58 ± 0.2 | -5 ± 0.45
CUCGAGCAAUAUUACGCCUC | -2.38 ± 0.65 | –
CAUCAGCAAUAUUACGGAAC | -2.54 ± 0.36 | -2.6 ± 0.19
CAGGAGCAAUAUUACGAGUU | -2.75 ± 0.62 | –
UUCGAGCAAUAUUACGGGAC | – | -3.17 ± 1
UCGGAGCAAUAUUACGACGU | 0.614 ± 0.85 | -3.43 ± 1
UCUAAGCAAUAUUACGGUUG | -2.61 ± 0.18 | -2.82 ± 0.15
GGAGAGCAAUAUUACGCCCC | -1.55 ± 0.84 | –
GAAUAGCAAUAUUACGGGGC | -3.83 ± 0.52 | –
GCAGAGCAAUAUUACGCCCU | – | -2.94 ± 0.69
UCUGAGCAAUAUUACGCCGC | – | -0.631 ± 1.2
ACAGAGCAAUAUUACGAAAC | -1.94 ± 0.57 | –
GCAGAGCAAUAUUACGGUCU | -2.39 ± 0.27 | -3.54 ± 0.25
AUUAAGCAAUAUUACGAGAA | – | -2.83 ± 0.57

Sequence | self-splicing fitness (ln) (37 °C) | self-splicing fitness (ln) (30 °C)
UGUCAGCAAUAUUACGCUUC | – | -3.51 ± 0.52
GGAGAGCAAUAUUACGUACG | -2.26 ± 0.55 | –
GUCCAGCAAUAUUACGUUGA | -0.239 ± 0.071 | -0.801 ± 0.057
UCGCAGCAAUAUUACGUCUG | – | -4.75 ± 0.51
UAUAAGCAAUAUUACGAGGG | -3.44 ± 0.6 | -3.42 ± 0.3
CUCUAGCAAUAUUACGACUG | -0.621 ± 0.18 | -1.68 ± 0.15
GUAUAGCAAUAUUACGACGA | -0.483 ± 0.19 | -1.78 ± 0.24
UCUGAGCAAUAUUACGACCU | – | -4.64 ± 0.59
UUCUAGCAAUAUUACGCCAG | – | -0.868 ± 1.4
UUUGAGCAAUAUUACGUGCG | – | -4.13 ± 0.6
UCCUAGCAAUAUUACGGAAC | – | -3.65 ± 0.6
CGGGAGCAAUAUUACGACAA | -1.69 ± 0.84 | -2.18 ± 0.84
GAUGAGCAAUAUUACGCUAU | -1.11 ± 0.73 | –
UACGAGCAAUAUUACGGAUU | -2.16 ± 1.1 | –
UCUAAGCAAUAUUACGCGAC | – | -4.84 ± 0.73
CUGGAGCAAUAUUACGGAGU | -4.24 ± 0.72 | –
GCGAAGCAAUAUUACGAAAA | -2.94 ± 0.6 | –
GAGAAGCAAUAUUACGGCGG | -1.25 ± 0.15 | -1.9 ± 0.12
UUCAAGCAAUAUUACGGCCU | -0.267 ± 0.15 | -2.42 ± 0.17
UGAGAGCAAUAUUACGACGA | -0.482 ± 0.6 | -2.64 ± 0.5
UUCGAGCAAUAUUACGCCUA | -1.39 ± 0.097 | -1.67 ± 0.11
GACGAGCAAUAUUACGCUCC | -1.91 ± 0.34 | -2.9 ± 0.29
CUUGAGCAAUAUUACGAUUC | – | -2.47 ± 1.1
GCGCAGCAAUAUUACGAAAA | -1.7 ± 0.21 | -1.92 ± 0.21

Single values from the results shown.
self-splicing fitness (ln) (30 °C) with UGAGAGCAAUAUUACGACGA is entered as -2.64 ± 0.5
self-splicing fitness (ln) (30 °C) with GAGAAGCAAUAUUACGGCGG is entered as -1.9 ± 0.12
self-splicing fitness (ln) (30 °C) with GUAUAGCAAUAUUACGACGA is entered as -1.78 ± 0.24
